# In patent US12048281B2, “Method for treating post-emergent rice” (BASF SE, priority 2009, dated 2024):
# Read-outs that look alike come from different tables or passages of the source.
# How the values were obtained:
# rice calli = assay: Tissue culture selection of herbicide-tolerant mutant rice lines from calli; type: cell-based, Oryza sativa; details: for Rate: mutants per # calli; for lines confirmed as mutants: share of recovered lines when selection was on this herbicide
# maize callus = details: stepwise selection at 0.5, 1.0, 2.0, 5.0 and 10 μM, cited from earlier work
# [1] = Total over genotypes for this selection agent
# [2] = genotype Indica 1, mutant lines per gram of callus
# [3] = genotype Indica 1, number of mutant lines recovered with this selection agent
structure (smiles),measurement,setting,value
CCCC(=NOCC)C1=C(O)CC(C2CCCSC2)CC1=O (centres unmarked) [cycloxydim],#/gm callus,rice calli; [1],0.09 #/gm callus
same,#/gm callus,rice calli; [2],0.07 #/gm callus
same,Mutants,rice calli; [3],3
same,#/gm callus,rice calli; genotype Koshi (Koshihikari),0.15 #/gm callus
same,Mutants,rice calli; genotype Koshi (Koshihikari),6
same,#/gm callus,rice calli; genotype NB (Nipponbare),0.01 #/gm callus
same,Mutants,rice calli; genotype NB (Nipponbare),1
same,Rate,rice calli; genotype NB (Nipponbare),0.029%
same,#/gm callus,rice calli; genotype T309 (Taipei 309),0.20 #/gm callus
same,Mutants,rice calli; genotype T309 (Taipei 309),8
same,lines confirmed as mutants,rice calli,68%
CCC/C(=N\OCC)C1=C(O)CC(CC(C)SCC)CC1=O (centres unmarked) [sethoxydim],calculated mutation rate,maize callus; 100 g of callus,0.02 lines/g
same,calculated mutation rate,maize callus,2 lines/100 g of callus
same,#/gm callus,rice calli; [1],0.03 #/gm callus
same,#/gm callus,rice calli; [2],0.05 #/gm callus
same,Mutants,rice calli; [3],3
same,#/gm callus,rice calli; genotype NB (Nipponbare),0.00 #/gm callus
same,Mutants,rice calli; genotype NB (Nipponbare),0
same,Rate,rice calli; genotype NB (Nipponbare),0.000%
same,#/gm callus,rice calli; genotype T309 (Taipei 309),0.00 #/gm callus
same,Mutants,rice calli; genotype T309 (Taipei 309),0
same,Rate,rice calli; genotype T309 (Taipei 309),0.000%
same,lines confirmed as mutants,rice calli,21%
